Experimental data: PubChem BioAssay AID743454 (Peter MacCallum Cancer Centre, 2014)
Shown is a random part of about 18,000 deposited reagents. 450 of all reagents (2.5%) count as active. 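Single biological run; no consistent viability z cut-off exists, so the class columns, not z-scores, define the calls.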 Entries without a mark were called inactive. Reagent sequences are not shown.

Aim: 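Knock-downs lowering viability or raising caspase 3/7 activity in vorinostat-treated resistant cells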 (primary screen)
System: human HCT116-VR colon cancer cells, selected for vorinostat resistance
Reagent: siRNA pool against human genes, 40 nM siRNA pool
Timing: vorinostat for 24 h, read-out about 72 h after transfection
Conditions: vorinostat at 2.5 µM final
Read-out: 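Two measures, CellTiter-Fluor viability and luminescent caspase 3/7 activity, each as fold change against same-plate mock wells, mean of duplicates, then screen-wide robust z-score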
Direction: viability robust z-score: higher = more viable cells than screen typical; caspase robust z-score: higher = more caspase 3/7 activity than screen typical
Rule for the call: 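a knock-down is a hit when classed RV1 or RV2 for lowered viability, or CA1 or CA2 for caspase activation; those lethal without drug were dropped; hits were retested singly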

What did the screen give for RAX2?
viability hit class: no change; caspase hit class: no change; viability robust z-score: -1.48; caspase robust z-score: 4.21

With NTM, what does the deposit list?
viability hit class: no change; caspase hit class: no change; viability robust z-score: -2.5; caspase robust z-score: 2.93

With ST3GAL1, what was measured?
viability hit class: no change; caspase hit class: no change; viability robust z-score: 0.94; caspase robust z-score: -0.26

With TM6SF2, how do the results read?
viability hit class: no change; caspase hit class: no change; viability robust z-score: -0.27; caspase robust z-score: -0.75

Which result is listed for RAP1GDS1?
viability hit class: no change; caspase hit class: no change; viability robust z-score: 2.41; caspase robust z-score: 0.37

How did the screen score RHBDL1?
viability hit class: no change; caspase hit class: no change; viability robust z-score: -0.52; caspase robust z-score: 0.7

With PRDM15, how do the results read?
viability hit class: no change; caspase hit class: no change; viability robust z-score: 2.66; caspase robust z-score: 0.83

2 successive records already listed, quoted:
RAX2 — viability hit class = no change; caspase hit class = no change; viability robust z-score = -1.48; caspase robust z-score = 4.21
NTM — viability hit class = no change; caspase hit class = no change; viability robust z-score = -2.5; caspase robust z-score = 2.93

The results go on.
With RPS24, what was measured?
viability hit class: no change; caspase hit class: no change; viability robust z-score: -4.08; caspase robust z-score: -1.68

Which result is listed for PRSS21?
viability hit class: no change; caspase hit class: no change; viability robust z-score: -0.61; caspase robust z-score: -0.03

What is on record for GPRC5C?
viability hit class: no change; caspase hit class: no change; viability robust z-score: 1.22; caspase robust z-score: -1.21

What did the screen give for SLC7A8?
viability hit class: no change; caspase hit class: no change; viability robust z-score: 2.22; caspase robust z-score: -0.45

How did the screen score RPL11?
viability hit class: no change; caspase hit class: no change; viability robust z-score: -2.99; caspase robust z-score: -0.6
